This note sets out measurements from patent publication EP0266006A2 (SHIONOGI SEIYAKU KABUSHIKI KAISHA trading under the name of …, priority 1986, dated 1988).

This data set is described as follows: general procedure: solution-phase peptide synthesis; EDC/HOBt; active esters (OSu, ONp); DCC; azide method.

The star is where a group is joined. Tos = Cc1ccc(S(=O)(=O)*)cc1; OPac = O=C(CO*)c1ccccc1; Boc = CC(C)(C)OC(=O)*; OBn = c1ccc(CO*)cc1; Bn = c1ccc(C*)cc1; Acm = CC(=O)NC*; NHNH2 = NN*

As to Boc-AQS(Bn)G-OH, the step yield (late stage modification step) turned out to be 76%.

Turning to Boc-Asp(OBzl)-Arg(Tos)-Ile-Gly-OTce, where the note is “coupling step”, the step yield is on record as 93%.

Boc-AQS(Bn)GLG-OPac registered a step yield (coupling step) of 85%.

For “Boc-Asn-Ser(Bzl)-Phe-Arg(Tos)-Tyr(Dcb)-OBzl”, the step yield (coupling step) is 88%.

Under “late stage modification step”, Boc-FGGR(Tos)MD(OBn)R(Tos)IG-OH displayed a step yield of 86%.

As for Boc-Met-Asp(OBzl)-Arg(Tos)-Ile-Gly-OTce, where the note is “coupling step”, the step yield is 95%.

Turning to “Boc-Ala-Gln-Ser(Bzl)-Gly-Leu-Gly-Cys(Acm)-Asn-Ser(Bzl)-Phe-Arg(Tos)-Tyr(Dcb)-OBzl”, the step yield (coupling step) worked out at 96%.

Take Boc-C(Acm)FGG-OBn: the step yield (coupling step) is listed as 92%.

For the substance Boc-AQS(Bn)G-OPac, where the note is “coupling step”, the step yield is 85%.

In the case of “Aoc-Arg(Tos)-Met-Asp(OBzl)-Arg(Tos)-Ile-Gly-OTce”, the step yield (coupling step) stood at 54%.

“Boc-Phe-Gly-Gly-Arg(Tos)-Met-Asp(OBzl)-Arg(Tos)-Ile-Gly-Ala-Gln-Ser(Bzl)-Gly-Leu-Glr-Cys(Acm)-Asn-Ser(Bzl)-Arg(Tos)-Tyr(Dcb)-OBzl” had a step yield (coupling step) of 86%.

In turn, “Boc-Phe-Gly-Gly-Arg(Tos)-Met-Asp(OBzl)-Arg(Tos)-Ile-Gly-OTce” came in with a step yield (coupling step) of 77%.

With Boc-AQS(Bn)GLG-OH, under “late stage modification step”, the step yield is 80%.

Turning to Boc-C(Acm)FGG-NHNH2, the step yield (late stage modification step) was 97%.

For the substance Boc-C(Acm)FGGR(Tos)MD(OBn)R(Tos)IG-OH, the step yield (late stage modification step) came to 98%.

On to “Boc-Cys(Acm)-Phe-Gly-Gly-Arg(Tos)-Met-Asp(OBzl)-Arg(Tos)-Ile-Gly-OTce”, for which the step yield (coupling step) came out at 91%.

For “Boc-Cys(Acm)-Asn-Ser(Bzl)-Phe-Arg(Tos)-Tyr(Dcb)-OBzl”, under “coupling step”, the step yield is on record as 85%.

For the substance “Boc-Ala-Gln-Ser(Bzl)-Gly-Leu-Gly-Cys(Z-Cys-OH)-Asn-Ser(Bzl)-Phe-Arg(Tos)-Tyr(Dcb)-OBzl”, the step yield (late stage modification step) is 69%.
